PubChem BioAssay AID1688 (National Center for Advancing Translational Sciences (NCATS), 2009)
The campaign covered roughly 220,000 compounds. About 2,400 (1.1%) were called active. Inconclusive results, whose numbers are uncertain, are shown with a selection of clear calls. Calls come from the whole dose curve; as a rule, active = well fitted inhibition curve with a large enough effect; inconclusive = small, poorly fitted or top-dose-only effect, or effect the other way; inactive = no such curve, though single readings can be large or run the other way. Potencies of inconclusive entries are doubtful fits and often do not repeat.

Experiment: qHTS Multiplex Assay to Identify Dual Action Probes in a Cell Model of Huntington: Aggregate Formation (GFP); note: nearly all actives have a fitted effect of over 60% in size
Conditions: PC12 HttQ103-GFP aggregates, Acumen cytometry, 40 h; activity change, negative = inhibition: at 46.1 µM (top of the series) unless noted
How it was run: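 Steps: seed 1500 PC12 HTTQ103-GFP cells/well; add tebufenozide, 100 nM final; add compound titration; add ATPLite reagent; quantify GFP aggregates by laser scanning cytometry.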
% is set by controls: 0 for no effect and ±100 for the full control effect; potency is the fitted concentration of half-maximal effect.

| Structure (SMILES) | Potency | activity change, negative = inhibition |
| --- | --- | --- |
| COc1ccc(C(=O)NN/C(C)=C/C(=O)C(F)(F)C(F)(F)C(F)(F)F)cc1 | active: 11.2 µM | – |
| COc1cccc2cc(C(=O)N3C(C)CCCC3C)c(=O)oc12 (stereo not given) | inconclusive: 6.31 µM [inhibitor, partial curve] | – |
| CCN(c1cccc(C)c1)S(=O)(=O)c1ccc2[nH]c(=O)c(=O)[nH]c2c1 | inactive | – |
| O=C(CSc1ncnc2ccccc12)c1cccs1 | inconclusive: 35.5 µM [inhibitor, partial curve] | – |
| CCOc1ccc2c(c1)-c1c(ssc1=S)C(C)(C)N2 | inconclusive: 15.8 µM [inhibitor, single point] | – |
| Cc1ccc(-n2c(C)nc3c(cnn3-c3ccc(F)cc3)c2=O)cc1 | inconclusive: 12.6 µM [inhibitor, partial curve] | – |
| CCc1ccc(NC(=S)NC2CCN(Cc3ccccc3)CC2)cc1 | inconclusive: 35.5 µM [inhibitor, single point] | – |
| Fc1ccc(NC(=S)N2N=CCC2c2ccccc2)cc1 (stereo not given) | inactive | – |
| CN(CCN1CCc2ccccc2C1)Cc1nc(Cc2ccccc2F)no1 | inactive | – |
| CCOC(=O)c1cnc2c(Cl)c(Cl)ccc2c1N1CCN(C)CC1 | inconclusive: 35.5 µM [activator, single point] | – |
| Cc1sc2ncnc(OCC(=O)N3CCN(S(=O)(=O)c4ccccc4)CC3)c2c1C | inconclusive: 0.0316 µM [inhibitor, full curve, poor fit] | – |
| COC(=O)c1cc(CNC(=O)c2cccc(Cl)c2Cl)ccc1OC | inactive | – |
| COc1ccc(CN2CCN(CC(O)Cn3c4ccccc4c4ccccc43)CC2)cc1 (stereo not given) | inconclusive: 35.5 µM [inhibitor, single point] | – |
| Cc1ccc2nc3c(cc(C#N)c(=O)n3CCN3CCOCC3)c(=O)n2c1 | inactive | – |
| O=C(NCc1ccccc1)c1ccc(=O)oc1 | – | inactive: -17% [at 9.22 µM] |
| O=C(CN1CCOCC1)OCCCc1ccccc1 | inactive | – |
| O=C(c1ccc2c(c1)OCO2)[C@@H]1[C@@H]2C(=O)N(C3CCCCC3)C(=O)[C@@H]2C2c3ccccc3C=CN21 (stereo not given in full) | inactive | – |
| O=C(Cn1cc(SCc2ccccc2Cl)c2ccccc21)N1CCOCC1 | inconclusive: 3.16 µM [inhibitor, single point] | – |
| CCOC(=O)c1c(C)[nH]c(C(=O)CSc2nnc(-c3cccs3)n2Cc2ccccc2)c1C | inconclusive: 1 µM [activator, partial curve] | – |
| Cc1noc(C)c1CSCC(=O)N1CCN(c2ccc(F)cc2)CC1 | active: 7.94 µM | – |
| CCOC(=O)N1CCN(C(=O)c2oc3ccc(S(=O)(=O)N4CCOCC4)cc3c2C)CC1 | inconclusive: 35.5 µM [inhibitor, single point] | – |
| COc1cccc2sc(Nc3nnc(-c4ccc(F)cc4)o3)nc12 | inconclusive: 35.5 µM [activator, single point] | – |
| Cc1cccc(C)c1NC(=O)Cn1nc(-c2ccccc2)nc1-c1ccccc1 | inactive | – |
| CCCCc1c(CCC)c(=N)c2ccccc2n1C | active: 8.91 µM | – |
| COC(=O)C1C(c2ccc(OC)c(OC)c2)NC(c2ccc(OC)c(OC)c2)C(C(=O)OC)S1(=O)=O (stereo not given) | inactive | – |

Among those listed so far, three have a Cl atom:

| Structure (SMILES) | Potency | activity change, negative = inhibition |
| --- | --- | --- |
| CCOC(=O)c1cnc2c(Cl)c(Cl)ccc2c1N1CCN(C)CC1 | inconclusive: 35.5 µM [activator, single point] | – |
| COC(=O)c1cc(CNC(=O)c2cccc(Cl)c2Cl)ccc1OC | inactive | – |
| O=C(Cn1cc(SCc2ccccc2Cl)c2ccccc21)N1CCOCC1 | inconclusive: 3.16 µM [inhibitor, single point] | – |

Carrying on:

| Structure (SMILES) | Potency | activity change, negative = inhibition |
| --- | --- | --- |
| CC(C)CC(NC(=O)CNC(=O)C1O[C@@H]2OC(C)(C)O[C@@H]2[C@H]2OC(C)(C)O[C@@H]12)C(=O)O (stereo not given in full) | inactive | – |
| CN(C)S(=O)(=O)c1ccccc1C#N | inconclusive: 0.316 µM [activator, full curve, poor fit] | – |
| Oc1ccc(N=Nc2n[nH]c(-c3ccc(Cl)cc3)n2)cc1 | active: 17.8 µM | – |
| Cc1nn(Cc2ccccc2)c2c1C(c1ccncc1)C(C#N)=C(N)O2 (stereo not given) | inactive | – |
| O=C(Cc1ccc(F)cc1)c1ccc(O)cc1O | inconclusive: 8.91 µM [inhibitor, partial curve] | – |
| COc1cc(NC(=S)NCCC(c2ccccc2)c2ccccc2)c(OC)cc1Cl | inactive | – |
| Cc1ccc(/C=C/C(=O)c2ccccc(=O)c2O)cc1C | inactive | – |
| COc1cccc(CNC(=O)c2nnn(CC(=O)Nc3ccc4c(c3)OCO4)c2N)c1 | inactive | – |
| Cc1cccc(NC(=S)NNC(=O)COc2ccc(Cl)cc2Cl)c1 | inconclusive: 35.5 µM [inhibitor, single point] | – |
| CNC(=O)COC(=O)c1ccccc1C(=O)c1ccc(Cl)c([N+](=O)[O-])c1 | active: 28.2 µM | – |
| COC(=O)c1cc(OC)c(OC)cc1NC(=O)c1ccco1 | inactive | – |
| Cc1ccc(S(=O)(=O)Oc2ccc3c(c2)O/C(=C\c2cccnc2)C3=O)cc1 | inactive | – |
| O=C(Nc1cnn(Cc2ccc(Cl)cc2Cl)c1)c1noc2c1CCCC2 | inconclusive: 35.5 µM [inhibitor, single point] | – |
| Cc1ccc(C)c(C(=O)N(Cc2nc(-c3ccc(Cl)cc3)no2)C(C)C)c1 | active: 22.4 µM | – |
| COc1cc(C2NC(=O)NC(C)=C2C(=O)OCc2ccc(C)cc2)cc(OC)c1O (stereo not given) | inconclusive: 35.5 µM [activator, single point] | – |
| CC1=C(C(=O)OCC2CCCO2)C(c2cccc(C(F)(F)F)c2)C2=C(CC(c3ccco3)CC2=O)N1 (stereo not given) | inconclusive: 0.562 µM [inhibitor, full curve, poor fit] | – |
| Cn1c(-c2ccc(F)cc2)cnc1SCC(=O)Nc1ccccc1 | – | inactive: 9.58% [at 9.22 µM] |
| O=S(=O)(c1ccccc1)N1CCN(c2ccnc3cc(Cl)ccc23)CC1 | inconclusive: 35.5 µM [inhibitor, single point] | – |
| O=C(Nc1ccccc1Br)C(=O)N1CCCC1 | inactive | – |
| Cc1noc(N)c1C1(O)C(=O)N(C(C)C)c2ccccc21 (stereo not given) | inactive | – |
| O=c1c2cccc(Cl)c2nc2n1Cc1ccccc1-2 | – | inactive: -1.34% [at 9.22 µM] |
| COc1cccc(-c2cc(C(=O)N3C(C)CCCC3C)no2)c1 (stereo not given) | inconclusive: 25.1 µM [inhibitor, single point] | – |
| Nc1nc2c(s1)CC(c1ccccc1)CC2 (stereo not given) | inconclusive: 20 µM [inhibitor, single point] | – |
| C/C=C/C(=O)OCC(=O)Nc1ccc(SC(F)F)cc1 | inactive | – |
| CC(=O)c1ccccc1NC(=O)Cn1c(=O)cnc2ccccc21 | inactive | – |
